{"source": "PubChem BioAssay AID1259405 (NCATS, 2018)", "test": "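Silenced genes that increase secreted GFP made by CHO cells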 (primary screen)", "cells": "Chinese hamster CHO-K1 ovary cells with stable secreted eGFP expression", "reagents": "single siRNA against mouse genes, 0.8 pmol siRNA per well (2 µl of 400 nM stock)", "duration": "3 days", "measured": "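Per-well intracellular GFP measured by laser scanning cytometry, plus viability from ATP luminescence, each relative to plate median of non-targeting control wells, in %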", "scale": "GFP, % of control: higher = more GFP per well, higher productivity; viability (ATP), % of control: higher = more viable cells (more ATP)", "active means": "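Called active when intracellular GFP, relative to negative control, is at or above 120%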", "note": "Here is one part, drawn at random, of about 50,000 deposited reagents. In the full data, about 4,000 (8%) are marked active. 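Mouse siRNA library applied to hamster cells; one well for each siRNA.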 A number with no mark means an inactive call."}
The first 5 records as a preview:
{"target": "Hspa13", "PubChem SID": "SID363582524", "GFP, % of control": "129 (active)", "viability (ATP), % of control": 134}
{"target": "Hspa13", "PubChem SID": "SID363584284", "GFP, % of control": 92.5, "viability (ATP), % of control": 87.2}
{"target": "Tada1", "PubChem SID": "SID363539804", "GFP, % of control": 51.1, "viability (ATP), % of control": 78.4}
{"target": "Tada1", "PubChem SID": "SID363561105", "GFP, % of control": "215 (active)", "viability (ATP), % of control": 131}
{"target": "Tada1", "PubChem SID": "SID363565195", "GFP, % of control": 59.9, "viability (ATP), % of control": 96.7}

Main list, repeating the preview:
{"target": "Hspa13", "PubChem SID": "SID363582524", "GFP, % of control": "129 (active)", "viability (ATP), % of control": 134}
{"target": "Hspa13", "PubChem SID": "SID363584284", "GFP, % of control": 92.5, "viability (ATP), % of control": 87.2}
{"target": "Tada1", "PubChem SID": "SID363539804", "GFP, % of control": 51.1, "viability (ATP), % of control": 78.4}
{"target": "Tada1", "PubChem SID": "SID363561105", "GFP, % of control": "215 (active)", "viability (ATP), % of control": 131}
{"target": "Tada1", "PubChem SID": "SID363565195", "GFP, % of control": 59.9, "viability (ATP), % of control": 96.7}
{"target": "Ercc1", "PubChem SID": "SID363569991", "GFP, % of control": 74.6, "viability (ATP), % of control": 85.1}
{"target": "Ercc1", "PubChem SID": "SID363577031", "GFP, % of control": 56.1, "viability (ATP), % of control": 71.7}
{"target": "Ercc1", "PubChem SID": "SID363578439", "GFP, % of control": 91.4, "viability (ATP), % of control": 79.7}
{"target": "Calhm5", "PubChem SID": "SID363546584", "GFP, % of control": 48.3, "viability (ATP), % of control": 62.7}
{"target": "Calhm5", "PubChem SID": "SID363548340", "GFP, % of control": 68.1, "viability (ATP), % of control": 79.9}
{"target": "Calhm5", "PubChem SID": "SID363560518", "GFP, % of control": 66.9, "viability (ATP), % of control": 84.8}
{"target": "Zfp729a", "PubChem SID": "SID363573419", "GFP, % of control": 39.8, "viability (ATP), % of control": 57.3}
{"target": "Zfp729a", "PubChem SID": "SID363588658", "GFP, % of control": "140 (active)", "viability (ATP), % of control": 99.1}
{"target": "Drd5", "PubChem SID": "SID363571341", "GFP, % of control": 119, "viability (ATP), % of control": 113}
{"target": "Drd5", "PubChem SID": "SID363571693", "GFP, % of control": 66.7, "viability (ATP), % of control": 65}
{"target": "Drd5", "PubChem SID": "SID363572045", "GFP, % of control": 71.2, "viability (ATP), % of control": 69.2}
{"target": "Slc2a8", "PubChem SID": "SID363574895", "GFP, % of control": 64.2, "viability (ATP), % of control": 103}
{"target": "Slc2a8", "PubChem SID": "SID363575951", "GFP, % of control": 71.7, "viability (ATP), % of control": 90.7}
{"target": "Slc2a8", "PubChem SID": "SID363580527", "GFP, % of control": 13, "viability (ATP), % of control": 14}
{"target": "Ubr1", "PubChem SID": "SID363572532", "GFP, % of control": 79, "viability (ATP), % of control": 57}
{"target": "Ubr1", "PubChem SID": "SID363577812", "GFP, % of control": 88.2, "viability (ATP), % of control": 82.1}
{"target": "Ubr1", "PubChem SID": "SID363582036", "GFP, % of control": 78.4, "viability (ATP), % of control": 90.6}
{"target": "Rtl1", "PubChem SID": "SID363554949", "GFP, % of control": 66.7, "viability (ATP), % of control": 43.7}
{"target": "Rtl1", "PubChem SID": "SID363568396", "GFP, % of control": 57.2, "viability (ATP), % of control": 64.1}
{"target": "Rtl1", "PubChem SID": "SID363586455", "GFP, % of control": 75.6, "viability (ATP), % of control": 68.2}
{"target": "Zfp467", "PubChem SID": "SID363573696", "GFP, % of control": 62.3, "viability (ATP), % of control": 87.8}
{"target": "Zfp467", "PubChem SID": "SID363581440", "GFP, % of control": 109, "viability (ATP), % of control": 89.9}
{"target": "Zfp467", "PubChem SID": "SID363583904", "GFP, % of control": 68.7, "viability (ATP), % of control": 91.2}
{"target": "Bltp2", "PubChem SID": "SID363543818", "GFP, % of control": 32.1, "viability (ATP), % of control": 52.2}
{"target": "Bltp2", "PubChem SID": "SID363551554", "GFP, % of control": 95.6, "viability (ATP), % of control": 97.6}
{"target": "Bltp2", "PubChem SID": "SID363559159", "GFP, % of control": 93.5, "viability (ATP), % of control": 72.3}
{"target": "Myl6", "PubChem SID": "SID363572462", "GFP, % of control": 84.9, "viability (ATP), % of control": 59.8}
{"target": "Myl6", "PubChem SID": "SID363574222", "GFP, % of control": 73.7, "viability (ATP), % of control": 79.5}
{"target": "Cd38", "PubChem SID": "SID363569739", "GFP, % of control": 111, "viability (ATP), % of control": 83.9}
{"target": "Cd38", "PubChem SID": "SID363576779", "GFP, % of control": 92.5, "viability (ATP), % of control": 103}
{"target": "Cd38", "PubChem SID": "SID363578187", "GFP, % of control": 17.5, "viability (ATP), % of control": 41.1}
{"target": "Mad2l1", "PubChem SID": "SID363562282", "GFP, % of control": 95.6, "viability (ATP), % of control": 93.8}
{"target": "Mad2l1", "PubChem SID": "SID363567420", "GFP, % of control": 58.7, "viability (ATP), % of control": 92.7}
{"target": "Mad2l1", "PubChem SID": "SID363584777", "GFP, % of control": 61.9, "viability (ATP), % of control": 77.3}
{"target": "Erlec1", "PubChem SID": "SID363552349", "GFP, % of control": "124 (active)", "viability (ATP), % of control": 91.9}
{"target": "Erlec1", "PubChem SID": "SID363585485", "GFP, % of control": 61.1, "viability (ATP), % of control": 87.8}
{"target": "Erlec1", "PubChem SID": "SID363585836", "GFP, % of control": 105, "viability (ATP), % of control": 104}
